Among the data in publication PMC8803816 are binding values, retold here.

For the test, the target named is T1, A20-Flag-Strep-Strep WT (UniProt P21580).
T1 sequence: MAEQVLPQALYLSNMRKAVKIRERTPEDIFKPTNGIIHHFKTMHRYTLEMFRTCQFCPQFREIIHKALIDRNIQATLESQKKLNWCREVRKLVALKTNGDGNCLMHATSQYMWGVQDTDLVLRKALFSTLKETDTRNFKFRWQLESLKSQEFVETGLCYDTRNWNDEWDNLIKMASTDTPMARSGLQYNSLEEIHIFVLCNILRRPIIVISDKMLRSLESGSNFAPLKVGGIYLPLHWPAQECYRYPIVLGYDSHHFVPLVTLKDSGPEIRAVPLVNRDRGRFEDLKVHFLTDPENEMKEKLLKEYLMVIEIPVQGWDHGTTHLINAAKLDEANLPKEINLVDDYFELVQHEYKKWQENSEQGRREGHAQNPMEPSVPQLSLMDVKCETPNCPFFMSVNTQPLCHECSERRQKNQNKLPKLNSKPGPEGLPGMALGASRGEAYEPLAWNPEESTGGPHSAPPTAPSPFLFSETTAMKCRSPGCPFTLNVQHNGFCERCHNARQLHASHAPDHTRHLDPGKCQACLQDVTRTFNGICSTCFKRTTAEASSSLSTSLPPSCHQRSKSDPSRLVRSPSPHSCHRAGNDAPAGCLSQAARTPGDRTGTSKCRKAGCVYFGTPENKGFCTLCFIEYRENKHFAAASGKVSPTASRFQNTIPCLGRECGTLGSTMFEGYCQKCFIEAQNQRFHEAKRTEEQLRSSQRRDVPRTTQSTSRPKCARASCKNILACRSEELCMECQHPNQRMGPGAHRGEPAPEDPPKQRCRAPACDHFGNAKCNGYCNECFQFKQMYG
The test is described as follows: pull-down; Strep-PD (Strep-Tactin Sepharose) of FS-tagged A20 from lysates of transduced A20 KO Jurkat T cells after P/I stimulation; Western blot. A general note: A western blot detects proteins with antibodies after separation by electrophoresis.

No constants are given. Whether binding was seen depends on the method and setting. Binding seen in cells or lysates may run through a third protein. Some binding calls cover weakened binding; strength is not graded here. Sequences can lack the tags named with a protein.

B1: Caspase recruitment domain 11 (CARD11) (protein, UniProt Q9BXL7 1-1154)
chain: MPGGGPEMDDYMETLKDEEDALWENVECNRHMLSRYINPAKLTPYLRQCKVIDEQDEDEVLNAPMLPSKINRAGRLLDILHTKGQRGYVVFLESLEFYYPELYKLVTGKEPTRRFSTIVVEEGHEGLTHFLMNEVIKLQQQMKAKDLQRCELLARLRQLEDEKKQMTLTRVELLTFQERYYKMKEERDSYNDELVKVKDDNYNLAMRYAQLSEEKNMAVMRSRDLQLEIDQLKHRLNKMEEECKLERNQSLKLKNDIENRPKKEQVLELERENEMLKTKNQELQSIIQAGKRSLPDSDKAILDILEHDRKEALEDRQELVNRIYNLQEEARQAEELRDKYLEEKEDLELKCSTLGKDCEMYKHRMNTVMLQLEEVERERDQAFHSRDEAQTQYSQCLIEKDKYRKQIRELEEKNDEMRIEMVRREACIVNLESKLRRLSKDSNNLDQSLPRNLPVTIISQDFGDASPRTNGQEADDSSTSEESPEDSKYFLPYHPPQRRMNLKGIQLQRAKSPISLKRTSDFQAKGHEEEGTDASPSSCGSLPITNSFTKMQPPRSRSSIMSITAEPPGNDSIVRRYKEDAPHRSTVEEDNDSGGFDALDLDDDSHERYSFGPSSIHSSSSSHQSEGLDAYDLEQVNLMFRKFSLERPFRPSVTSVGHVRGPGPSVQHTTLNGDSLTSQLTLLGGNARGSFVHSVKPGSLAEKAGLREGHQLLLLEGCIRGERQSVPLDTCTKEEAHWTIQRCSGPVTLHYKVNHEGYRKLVKDMEDGLITSGDSFYIRLNLNISSQLDACTMSLKCDDVVHVRDTMYQDRHEWLCARVDPFTDHDLDMGTIPSYSRAQQLLLVKLQRLMHRGSREEVDGTHHTLRALRNTLQPEEALSTSDPRVSPRLSRASFLFGQLLQFVSRSENKYKRMNSNERVRIISGSPLGSLARSSLDATKLLTEKQEELDPESELGKNLSLIPYSLVRAFYCERRRPVLFTPTVLAKTLVQRLLNSGGAMEFTICKSDIVTRDEFLRRQKTETIIYSREKNPNAFECIAPANIEAVAAKNKHCLLEAGIGCTRDLIKSNIYPIVLFIRVCEKNIKRFRKLLPRPETEEEFLRVCRLKEKELEALPCLYATVEPDMWGSVEELLRVVKDKIGEEQRKTIWVDEDQL
Turning to B1, the binding entry is “binds”.
